The target in assay [1] is T1, Recombinant murine C-terminally 2xStrepII tagged full length fibulin-1 (murine) (UniProt Q08879).
T1 sequence: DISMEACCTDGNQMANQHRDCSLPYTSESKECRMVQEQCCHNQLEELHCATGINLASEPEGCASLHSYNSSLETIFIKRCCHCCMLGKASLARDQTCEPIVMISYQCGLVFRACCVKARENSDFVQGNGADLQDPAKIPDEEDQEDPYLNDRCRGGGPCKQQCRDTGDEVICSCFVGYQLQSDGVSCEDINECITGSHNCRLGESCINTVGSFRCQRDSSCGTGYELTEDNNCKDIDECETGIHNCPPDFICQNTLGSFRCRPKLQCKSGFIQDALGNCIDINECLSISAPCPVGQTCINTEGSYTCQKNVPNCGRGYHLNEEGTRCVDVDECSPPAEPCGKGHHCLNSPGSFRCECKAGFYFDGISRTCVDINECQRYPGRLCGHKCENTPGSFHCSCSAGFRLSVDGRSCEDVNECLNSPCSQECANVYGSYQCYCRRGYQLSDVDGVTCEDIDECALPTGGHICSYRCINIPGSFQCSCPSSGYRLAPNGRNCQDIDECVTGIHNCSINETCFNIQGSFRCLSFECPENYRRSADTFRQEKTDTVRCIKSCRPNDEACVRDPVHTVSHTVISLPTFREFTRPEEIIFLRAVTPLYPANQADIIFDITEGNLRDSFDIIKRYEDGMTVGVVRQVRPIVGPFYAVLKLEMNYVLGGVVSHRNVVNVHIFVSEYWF
The assay is described as follows: pull-down; positive control experiment of the in vitro binding assay: fibulin-1 and -2 with elastin (Supplementary Fig. S2); details not told.

The target of assay [2] is T2, Recombinant murine C-terminally 2xStrepII tagged full length fibulin-2 (murine) (UniProt P37889).
T2 sequence: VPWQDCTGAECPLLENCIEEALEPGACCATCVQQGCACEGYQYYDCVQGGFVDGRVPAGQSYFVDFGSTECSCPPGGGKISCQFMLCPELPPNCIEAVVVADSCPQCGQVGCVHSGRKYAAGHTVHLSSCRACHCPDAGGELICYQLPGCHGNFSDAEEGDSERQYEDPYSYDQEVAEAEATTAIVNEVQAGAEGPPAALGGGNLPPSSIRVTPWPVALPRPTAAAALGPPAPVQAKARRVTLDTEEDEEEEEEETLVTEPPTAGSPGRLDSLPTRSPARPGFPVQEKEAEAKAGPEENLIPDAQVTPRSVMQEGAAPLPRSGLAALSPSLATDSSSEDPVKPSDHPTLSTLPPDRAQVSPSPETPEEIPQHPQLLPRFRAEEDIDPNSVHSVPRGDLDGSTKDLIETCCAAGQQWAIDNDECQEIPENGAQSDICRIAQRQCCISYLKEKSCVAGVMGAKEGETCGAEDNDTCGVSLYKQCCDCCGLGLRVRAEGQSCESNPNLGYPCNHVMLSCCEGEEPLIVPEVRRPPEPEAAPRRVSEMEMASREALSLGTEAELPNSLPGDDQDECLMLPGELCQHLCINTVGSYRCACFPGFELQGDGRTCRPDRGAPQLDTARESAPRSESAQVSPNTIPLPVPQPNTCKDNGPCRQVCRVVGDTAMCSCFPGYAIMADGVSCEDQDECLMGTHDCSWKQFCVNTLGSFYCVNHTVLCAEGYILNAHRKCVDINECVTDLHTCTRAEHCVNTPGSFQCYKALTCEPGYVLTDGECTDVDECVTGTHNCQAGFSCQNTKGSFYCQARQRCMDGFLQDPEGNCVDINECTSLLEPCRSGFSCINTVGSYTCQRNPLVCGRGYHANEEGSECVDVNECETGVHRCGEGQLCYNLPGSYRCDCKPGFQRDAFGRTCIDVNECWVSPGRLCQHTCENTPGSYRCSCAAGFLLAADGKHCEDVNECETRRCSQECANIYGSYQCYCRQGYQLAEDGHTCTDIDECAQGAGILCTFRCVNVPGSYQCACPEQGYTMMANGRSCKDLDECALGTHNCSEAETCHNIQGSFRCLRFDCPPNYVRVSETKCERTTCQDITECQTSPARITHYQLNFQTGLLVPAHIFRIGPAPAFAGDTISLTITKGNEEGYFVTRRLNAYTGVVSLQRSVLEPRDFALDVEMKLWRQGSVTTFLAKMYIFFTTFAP
The assay is described as above.

No constants are given. Whether binding was seen depends on the method and setting. In cells and extracts the contact can be indirect. Binding can be weak; no strength is given. Where a sequence is shown, tags or fusion partners need not be part of it.

elastin: the binding result in assay [1] and in assay [2] was “binds” each time.

Values taken from publication PMC7501263.
